Experimental data: PubChem BioAssay AID1347075 (National Center for Advancing Translational Sciences (NCATS), 2019)
Hit rate of the full screen: of about 400,000 compounds, about 5,500 (1.4%) were called active. Inconclusive results, whose numbers are uncertain, are shown with a selection of clear calls. Calls come from the whole dose curve; as a rule, active = well fitted cell-killing curve with a large enough effect; inconclusive = small, poorly fitted or top-dose-only effect, or effect the other way; inactive = flat fitted curve, though single readings scatter. A potency beside an inconclusive call is a rough fit, not a confirmed value.

Test: qHTS assay for MDR1-selective chemotherapeutics: Primary screen using the parental adenocarcinoma cell KB-3-1; note: nearly all actives have a fitted effect of over 60% in size
Conditions: KB-3-1 viability, CellTiter-Glo ATP luminescence, 72 h; series mostly up to 46.1 µM
Method in brief: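 Viability of parental KB-3-1 cells, measured by CellTiter-Glo luminescence, followed a 72 h incubation at 37 °C with pinned compounds in phenol-red-free DMEM containing 10% FBS.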
Potency is the fitted concentration of half-maximal effect.

Compound | Potency
Cc1ccc(C(=O)NNc2c3ccccc3nc3ccccc23)cc1 | inconclusive: 20.6 µM [cytotoxic, single point]
CCc1nnc(NC(=O)c2sc3nc4c(cc3c2N)CCCCC4)s1 | inconclusive: 29.1 µM [cytotoxic, single point]
O=C(CN1c2ccccc2S(=O)(=O)c2ccccc21)Nc1cccc(C(F)(F)F)c1 | inactive
Cc1ccc(Cl)cc1NC(=O)C1CCCN1S(=O)(=O)c1ccc(-c2ccc(=O)[nH]n2)s1 (configuration not stated) | inconclusive: 32.6 µM [cytotoxic, single point]
O=C(Nc1ccccc1)c1ccc(CN2CCc3ccccc3C2)cc1 | inconclusive: 9.2 µM [cytotoxic, partial curve, poor fit]
Cc1cc(C[n+]2ccccc2)c2nsnc2c1 | inconclusive: 29.1 µM [cytotoxic, single point]
Cc1c(Cl)cccc1Nc1nn2c(=O)c3ccc(C(=O)N(C)Cc4ccccc4)cc3nc2s1 | inconclusive: 14.6 µM [cytotoxic, partial curve, poor fit]
CC12CCC(C(=O)Nc3cccc(Cl)c3)(C(Br)C1=O)C2(C)C (configuration not stated) | inconclusive: 23.1 µM [cytotoxic, partial curve, poor fit]
CCOc1cc(S(=O)(=O)NCCc2c(C)[nH]c3ccc(C)cc23)ccc1Br | inactive
COC(=O)[C@@]12C[C@@H](CC(=O)NCCCCc3ccccc3)C(=O)N(Cc3ccc4c(c3)OCO4)C1=CCC(C)(C)C2 | inconclusive: 29.1 µM [cytotoxic, single point]
CCCS(=O)(=O)c1ncc(Cl)c(C(=O)Nc2sc3c(c2C(=O)NCC)CCCC3)n1 | inconclusive: 29.1 µM [cytotoxic, single point]
O=C1C2CCCN2C(c2cccs2)N1c1ccc(Cl)cc1 (configuration not stated) | inconclusive: 6.51 µM [cytotoxic, partial curve]
CC1(C)Cc2c(sc3nc4n(-c5ccccc5)cnn4c(=O)c23)CO1 | inconclusive: 7.31 µM [rising, partial curve]
COc1ccc(-c2nc(CSCC(=O)N3CCN(c4ccccc4)CC3)c(C)o2)cc1 | inconclusive: 16.4 µM [cytotoxic, single point]
CC(=O)c1cccc(NS(=O)(=O)c2cccc(S(=O)(=O)c3ccc(Br)cc3)c2)c1 | inconclusive: 29.1 µM [cytotoxic, single point]
COc1ccc(C2Nc3ccccc3C(=O)N2Cc2ccco2)cc1COc1c(C)cccc1C (configuration not stated) | active: 16.4 µM
O=S(=O)(NC1CCCCC1)c1ccc(Br)cc1 | inconclusive: 25.9 µM [cytotoxic, single point]

Arranged by molecular weight (smallest number first): three of the compounds above
Compound | Potency
CC1(C)Cc2c(sc3nc4n(-c5ccccc5)cnn4c(=O)c23)CO1 | inconclusive: 7.31 µM [rising, partial curve]
CCc1nnc(NC(=O)c2sc3nc4c(cc3c2N)CCCCC4)s1 | inconclusive: 29.1 µM [cytotoxic, single point]
CC(=O)c1cccc(NS(=O)(=O)c2cccc(S(=O)(=O)c3ccc(Br)cc3)c2)c1 | inconclusive: 29.1 µM [cytotoxic, single point]
